B1: CCT2, component of the CCT chaperone complex (protein, UniProt P78371 1-535)
chain: MASLSLAPVNIFKAGADEERAETARLTSFIGAIAIGDLVKSTLGPKGMDKILLSSGRDASLMVTNDGATILKNIGVDNPAAKVLVDMSRVQDDEVGDGTTSVTVLAAELLREAESLIAKKIHPQTIIAGWREATKAAREALLSSAVDHGSDEVKFRQDLMNIAGTTLSSKLLTHHKDHFTKLAVEAVLRLKGSGNLEAIHIIKKLGGSLADSYLDEGFLLDKKIGVNQPKRIENAKILIANTGMDTDKIKIFGSRVRVDSTAKVAEIEHAEKEKMKEKVERILKHGINCFINRQLIYNYPEQLFGAAGVMAIEHADFAGVERLALVTGGEIASTFDHPELVKLGSCKLIEEVMIGEDKLIHFSGVALGEACTIVLRGATQQILDEAERSLHDALCVLAQTVKDSRTVYGGGCSEMLMAHAVTQLANRTPGKEAVAMESYAKALRMLPTIIADNAGYDSADLVAQLRAAHSEGNTTAGLDMREGTIGDMAILGITESFQVKRQVLLSAAEAAEVILRVDNIIKAAPRKRVPDHHPC

Protein sequences, listed by entry. Tags and fused reporters are not part of them.
UniProt Q9BVC4: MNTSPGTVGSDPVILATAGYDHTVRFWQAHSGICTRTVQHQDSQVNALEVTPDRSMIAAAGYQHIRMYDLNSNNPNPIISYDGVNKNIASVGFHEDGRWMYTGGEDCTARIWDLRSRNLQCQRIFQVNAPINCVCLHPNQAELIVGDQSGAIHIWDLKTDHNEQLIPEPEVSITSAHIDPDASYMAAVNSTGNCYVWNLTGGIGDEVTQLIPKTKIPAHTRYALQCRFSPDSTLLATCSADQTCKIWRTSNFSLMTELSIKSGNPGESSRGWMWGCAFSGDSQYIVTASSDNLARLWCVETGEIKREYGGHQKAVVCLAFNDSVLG
UniProt P48643: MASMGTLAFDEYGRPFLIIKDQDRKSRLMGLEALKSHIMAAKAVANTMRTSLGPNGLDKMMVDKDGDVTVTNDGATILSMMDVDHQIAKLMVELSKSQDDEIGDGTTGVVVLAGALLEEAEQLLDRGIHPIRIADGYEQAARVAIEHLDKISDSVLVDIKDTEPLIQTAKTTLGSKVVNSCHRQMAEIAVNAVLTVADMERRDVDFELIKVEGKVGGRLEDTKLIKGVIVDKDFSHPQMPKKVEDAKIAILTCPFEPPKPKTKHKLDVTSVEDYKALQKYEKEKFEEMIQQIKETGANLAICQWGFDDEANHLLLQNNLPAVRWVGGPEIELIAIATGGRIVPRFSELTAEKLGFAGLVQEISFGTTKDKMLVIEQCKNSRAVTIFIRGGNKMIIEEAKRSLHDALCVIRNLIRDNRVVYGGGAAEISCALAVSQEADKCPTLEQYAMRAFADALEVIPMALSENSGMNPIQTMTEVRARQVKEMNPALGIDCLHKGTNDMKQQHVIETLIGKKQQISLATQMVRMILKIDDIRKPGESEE
UniProt P50990: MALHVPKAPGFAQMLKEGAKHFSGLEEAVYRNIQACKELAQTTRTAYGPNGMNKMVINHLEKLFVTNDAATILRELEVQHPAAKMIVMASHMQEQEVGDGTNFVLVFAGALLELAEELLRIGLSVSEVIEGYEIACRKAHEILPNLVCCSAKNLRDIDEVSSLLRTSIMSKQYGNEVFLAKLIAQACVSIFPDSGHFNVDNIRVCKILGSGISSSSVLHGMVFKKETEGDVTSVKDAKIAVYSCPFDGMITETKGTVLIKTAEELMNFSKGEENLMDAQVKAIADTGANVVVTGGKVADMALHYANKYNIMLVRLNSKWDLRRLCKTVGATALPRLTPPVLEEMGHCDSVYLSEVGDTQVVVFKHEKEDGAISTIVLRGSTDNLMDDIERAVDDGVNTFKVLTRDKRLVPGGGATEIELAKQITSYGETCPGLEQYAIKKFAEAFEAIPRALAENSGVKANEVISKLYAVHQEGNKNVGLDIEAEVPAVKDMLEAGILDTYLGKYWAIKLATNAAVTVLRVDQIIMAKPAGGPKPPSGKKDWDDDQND
UniProt Q99832: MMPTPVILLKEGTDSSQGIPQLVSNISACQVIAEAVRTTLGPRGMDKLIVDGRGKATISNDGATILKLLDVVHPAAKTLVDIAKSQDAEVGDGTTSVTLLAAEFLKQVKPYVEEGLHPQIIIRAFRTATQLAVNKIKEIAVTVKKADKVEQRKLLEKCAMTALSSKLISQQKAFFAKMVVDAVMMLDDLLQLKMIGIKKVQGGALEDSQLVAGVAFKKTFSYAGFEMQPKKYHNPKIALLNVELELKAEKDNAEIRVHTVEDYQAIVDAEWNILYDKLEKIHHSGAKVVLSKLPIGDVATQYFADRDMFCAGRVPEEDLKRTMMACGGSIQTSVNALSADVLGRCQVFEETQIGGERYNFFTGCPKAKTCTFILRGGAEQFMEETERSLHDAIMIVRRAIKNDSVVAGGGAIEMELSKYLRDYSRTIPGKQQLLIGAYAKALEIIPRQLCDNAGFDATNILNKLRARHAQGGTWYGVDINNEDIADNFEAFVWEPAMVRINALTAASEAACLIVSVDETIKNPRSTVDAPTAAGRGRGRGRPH

Consider four molecules from publication PMC9012288.

No constants are given. Whether binding was seen depends on the method and setting. Binding seen in cells or lysates may run through a third protein. Here binding means that the protein was enriched with, or labelled near, the bait; the list need not be complete.

The assay has as its target FLAG-tagged mLST8 (mammalian lethal with SEC13 protein 8), stably expressed in U251 cells (human (cDNA from U251 cells)) (UniProt Q9BVC4). Description: affinity purification with mass spectrometry; FLAG-mLST8 immunoprecipitated with anti-FLAG M2 beads from U251 cells stably expressing FLAG-mLST8; lysis in 50 mM Tris-Cl pH 7.5, 150 mM KCl, 0.5% NP-40, 1 mM PMSF, 4 °C, 3 h; on-bead trypsin digest, Q-Exactive.
Turning to “CCT5, component of the CCT chaperone complex (from UniProt P48643 1-541)”, the binding entry was “binds”.

Turning to “CCT8, component of the CCT chaperone complex (from UniProt P50990 1-548)”, the binding result is recorded as “binds”.

As for “CCT7, component of the CCT chaperone complex (from UniProt Q99832 1-543)”, the binding entry is on record as “binds”.

As for B1, the binding result is reported as “binds”.
